# Primary screen of a compound library

From ChEMBL document CHEMBL3988442, “University of Dundee, Small-Polar-MMV Screening Library” (2021).

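Viability assay of Plasmodium falciparum sporozoites; the read-out is not stated. The concentration is filed as 10 mM, unlikely as a test dose, so the dose is not known. Higher reads as lower viability (inferred: compounds with an IC50 in retests scored well above the rest). Strong results were mostly tested again. About 34,000 compounds were tested under these conditions; 0.84% (about 280) showed 50% or more at least once.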

The filed quantity is “Percent Effect” (%).
How 0% and 100% were set is not recorded. Most values in the screen are low, and negative values occur.
The compounds are a random part of those screened.
Two or more numbers in one place are separate tests of the same structure; such repeats can differ widely.

COc1cc(NC(=O)c2ccc(C)cc2C)c(C(=O)N(C)C)cc1OC read 1.225%. CN(C)[C@@H]1CCN(S(=O)(=O)C2CC2)[C@H]1Cc1ccccc1.O=C(O)C(F)(F)F read 5.199%. O=C(c1cc(=O)c(OCc2ccccc2F)co1)N1CCCC1 read -8.084%. C1CC(N2Cc3nnn(CC4CC4)c3C(COCC3CC3)C2)C1.O=C(O)C(F)(F)F (stereo not drawn) gave 6.239%.

Result for Fc1cnc(N2CCC3(CC2)CN(Cc2cccs2)CCO3)nc1.O=C(O)C(F)(F)F.O=C(O)C(F)(F)F was -0.2568%. With CCn1c(N)nc2cc(C(=O)NCCc3ccccc3C)cnc21 the screen gave 1.299% & -9.084% & 30.66%. Cn1cc(CN2CCC(c3ccncc3)CC2)cn1 read -8.981%. [H][C@]12C[C@@H](CN(C)C)N(CC3CC3)[C@@]1([H])CCN(Cc1nccn1C)C2 gave 21.1%.

O=C(CCN1CCN(c2ccc3nncn3n2)CC1)N1CCCCC1 gave 3.034%. For Cc1csc(N2CCN(C(=O)c3ccc(C)s3)CC2)n1 the result was -9.723%. Result for O=C(O)C(F)(F)F.[H][C@@]12CCN(Cc3ccsc3)C[C@@]1([H])[C@H](C(=O)NCC1CC1)CCO2 was -3.866%. With CC(C)c1noc(CCCC(=O)NC(C)c2ccccn2)n1 (stereo not drawn) the screen gave -13.08%.

Cc1c(COC(C)C)cccc1NC(=O)N1CCC(N2CCCC2)C1 (stereo not drawn) read 9.257%. COCCC(=O)N1CC2(CCN(Cc3ccncc3)CC2)C1 gave 10.16%. COCCN(CCOC)C(=O)c1sc(C)nc1C read -7.436%. With CN(Cc1nc(C2CC2)no1)C1CCCN(c2cccnn2)C1 (stereo not drawn) the screen gave -10.28%.

Cc1ccc(N2CCCC(NCC(=O)Nc3cc(C)no3)C2)nn1 (stereo not drawn) read 1.193%. With COc1cc(CN2C[C@H](OC)[C@]3(CCCO3)C2)ccc1F the screen gave 15.9%. OCCn1nccc1C1CCN(CCOc2cccc(F)c2)CC1 gave -11.4%. Result for Cc1cc(-c2cnc(N3CCNC(=O)C3)nc2-c2ccncc2)on1 was 10.4%.

CN1CCC2(CC1)C(=O)N(C)c1ccc(F)cc12.Cl gave 2.811%. Cc1c[nH]nc1C1CN(Cc2cnn(-c3ccccc3C(=O)O)c2)C1 read -1.554%. Result for c1cc2cc[nH]c2c(CC2CN(Cc3cscn3)C2)n1 was 18.28%. For CCCS(=O)(=O)N1CCC2(CC1)CN(CC1CCOC1)c1ccccc12.O=C(O)C(F)(F)F (stereo not drawn) the result was 20.83%.

For Cc1nc(C(=O)N2CCCC(c3ccc4sc(N)nc4n3)C2)co1 (stereo not drawn) the result was 9.927%. Result for CCCOc1ccc(CNC2CCCc3c2cnn3CC)cc1OC (stereo not drawn) was -5.839%. For Cc1ccc(C(CNCc2cccn2C)N2CCOCC2)s1 (stereo not drawn) the result was 13.66% & 13.44% & 27.33%. NC(=O)c1cnn2c1NCC(CNCCc1cccs1)C2 (stereo not drawn) read -5.462%.

Result for CC(NCc1cc2cc(F)ccc2o1)c1nnc2n1CCCC2 (stereo not drawn) was -12.66%. Result for Cc1ccc(C(=O)N2CCC(Oc3c(C)cccc3C)CC2)c(=O)[nH]1 was -4.27%. Cc1nn(C)c(Cl)c1C1CCCN1c1ncnc2sccc12 (stereo not drawn) gave -6.223%. O=C(CCOc1ccccc1F)N1CCCC(n2cncn2)C1 (stereo not drawn) read 3.68%.

Result for Cc1cc(F)ccc1S(=O)(=O)N1CCN(C)Cc2ccccc21 was -10.74%. Result for O=C(O)C(F)(F)F.O=C(O)C(F)(F)F.[H][C@@]12CCC(=O)N(c3ccccc3)[C@]1([H])CCN2Cc1ccncc1 was -7.684%. With Cc1nnc(NCc2ccccc2F)c(C#N)c1C the screen gave 2.77%. For CC(=O)c1cccc(OCCCC(=O)N(C)Cc2ccccn2)c1 the result was 7.882%.

With Cc1nc(NCc2nccn2C)cc(C2COCCN2)n1 (stereo not drawn) the screen gave 1.14%. Result for CCOCCCNc1ncc(-c2onc(C)c2C)c(-c2ccco2)n1 was -4.079%. c1cncc(CN2CCCC3(COCCN(c4nccs4)C3)C2)c1 (stereo not drawn) gave -5.928%. For CC(Cn1cccn1)NC(=O)NCc1ccc(S(C)(=O)=O)cc1 (stereo not drawn) the result was 12.55%.

CCc1nc(CN2CCN(C(=O)c3csnn3)CC2)cs1 read -0.983%. With COc1ccc(C(=O)NCCCOC(C)c2ccccc2)c(OC)c1 (stereo not drawn) the screen gave 9.579%. With Cc1ccnc(NC(=O)c2cccc(OCc3nnnn3C)c2)c1 the screen gave -2.478% & 7.993%. For CC(C)c1nccn1-c1cccc(C2CCN(C)CC2)n1 the result was -695.9%.

With NC(=O)c1cccc(CCNCc2cccs2)c1 the screen gave -0.3337%. Cc1nn(C)cc1CNC(=O)c1cn(CCC2CCCCN2)nn1 (stereo not drawn) gave -10.73%. CC(C)c1nc(C2CCCN2CCS(=O)(=O)c2ccccc2)no1 (stereo not drawn) gave 5.308%. With Cn1cnnc1SCc1cc2c(cc1Cl)OCO2 the screen gave -2.289%.

For CC(=O)N1CCOC2(CCCN(C(=O)CCN3CCCCC3)C2)C1 (stereo not drawn) the result was 6.33%. With CCCc1nc(CN2CCOC(Cn3cncn3)C2)no1 (stereo not drawn) the screen gave -5.489%. For COc1ccc(CC(=O)N2CCCCC2Cn2cc(C)cn2)cc1F (stereo not drawn) the result was -2.391% & -1.667% & 2.678%. Result for CC(=O)N1CCN([C@@H]2CC[C@@H](NC(=O)c3cc(C)cs3)[C@H]2O)CC1 was 4.53%.

For O=C(CN1CCC(OCC2CCCO2)CC1)NCC(F)(F)F (stereo not drawn) the result was -15.25%. For CCc1nc2c(s1)C(N(C)C(C)=O)CCC2 (stereo not drawn) the result was -2.999%. [H][C@@]12C[C@H](C(=O)NCc3ccccc3)[C@@]([H])(CN(C(=O)NC(C)C)C1)O2 read -2.125%. CN(C)Cc1ccccc1CN(C)c1ncnc2[nH]ccc12 read -2.982%.

[H][C@]12CCN(C(=O)C3CCCO3)[C@@]1([H])CCC(=O)N2Cc1ccncc1 (stereo partly drawn) gave -7.895%. With CN(C)c1cc(CNc2cncc(-n3cccn3)n2)ccn1 the screen gave 6.103%. CC1(C)COCCN1C(=O)c1ccc(Cn2cncn2)cc1 gave 10.35%.

Once more, the final 7:

O=C(CN1CCC(OCC2CCCO2)CC1)NCC(F)(F)F (stereo not drawn) read -15.25%.
CCc1nc2c(s1)C(N(C)C(C)=O)CCC2 (stereo not drawn) read -2.999%.
[H][C@@]12C[C@H](C(=O)NCc3ccccc3)[C@@]([H])(CN(C(=O)NC(C)C)C1)O2 read -2.125%.
CN(C)Cc1ccccc1CN(C)c1ncnc2[nH]ccc12 read -2.982%.
[H][C@]12CCN(C(=O)C3CCCO3)[C@@]1([H])CCC(=O)N2Cc1ccncc1 (stereo partly drawn) read -7.895%.
CN(C)c1cc(CNc2cncc(-n3cccn3)n2)ccn1 read 6.103%.
CC1(C)COCCN1C(=O)c1ccc(Cn2cncn2)cc1 read 10.35%.